# Measurements: PubChem BioAssay AID504444 (National Center for Advancing Translational Sciences (NCATS), 2011)
# About 7,500 (2.1%) of roughly 360,000 compounds were called active. The inconclusive results got no clear call from the source; some entries with a clear call stand among them for comparison. Calls follow the shape of the dose curve; as a rule, active = well fitted inhibition curve with a large enough effect; inconclusive = small, poorly fitted or top-dose-only effect, or effect the other way; inactive = flat fitted curve, though single readings scatter. A potency beside an inconclusive call is a rough fit, not a confirmed value.
# Assay: Nrf2 qHTS screen for inhibitors; also: nearly all actives have a fitted effect of over 60% in size
# Conditions: A549 ARE-Fluc reporter, luciferase luminescence, 18-24 h; series mostly up to 46 µM
# In short: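 In this cell-based qHTS, ARE-driven firefly luciferase in A549 cells reports Nrf2 activity; the luminescent signal after BugLite lysis is the measured value, with a prior CellTiter-Fluor read for cell health.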
# Potency is read from the fitted curve at half-maximal effect.
row,Structure (SMILES),Potency
1,CCC(=O)Nc1c(C(=O)Nc2ccc3c(c2)OCCO3)oc2ccccc12,"inconclusive: 20.6 µM [activator, partial curve]"
2,CC(=O)Nc1c(-c2ccc3ccccc3c2)nc2ccccn12,"inconclusive: 29.1 µM [activator, single point]"
3,O=C(NCc1cccnc1)/C(=C/c1ccc(-c2ccc(Cl)cc2)o1)S(=O)(=O)c1ccccc1,active: 20.6 µM
4,N#Cc1ccc(-c2ccccc2)nc1SCC(=O)c1cccc(Cl)c1,"inconclusive: 8.2 µM [falling, partial curve, poor fit]"
5,COC(=O)C1=C(N)Oc2cc(C)n(C)c(=O)c2C1c1ccc(Cl)c(Cl)c1 (configuration not stated),inactive
6,Cc1ccccc1NS(=O)(=O)c1ccc(C(=O)NCC2CCCO2)cc1 (configuration not stated),"inconclusive: 29.1 µM [falling, single point]"
7,CCOc1ccc(C2CC(c3cccc(Cl)c3)n3nc(N)nc3N2)cc1 (configuration not stated),"inconclusive: 18.4 µM [falling, single point]"
8,C=CC[n+]1c(-c2ccc(Cl)cc2Cl)csc1Nc1ccc(NC(C)=O)cc1,active: 11.6 µM
9,COc1ccc(CNC(=O)CN2C(=O)COc3ccc(S(=O)(=O)N4CCCCC4)cc32)cc1,inactive
10,Cc1ccc(-c2noc(-c3cccnc3NCc3ccco3)n2)cc1,"inconclusive: 29.1 µM [falling, single point]"
11,Cc1cc(F)ccc1NC(=O)Cn1nc(N2CCN(c3ccccc3)CC2)ccc1=O,inactive
12,COc1ccc2c(c1OC)C(=O)N1c3ccccc3C(=O)N(c3ccc(F)cc3)C21 (configuration not stated),"inconclusive: 32.6 µM [falling, single point]"
13,O=C(CCCn1ncn2c(cc3occc32)c1=O)NCc1ccccc1F,"inconclusive: 0.184 µM [falling, full curve, poor fit]"
14,CN1C(=O)c2ccc(C(=O)Nc3ccc4c(c3)OCO4)cc2C1=O,"inconclusive: 18.4 µM [activator, partial curve]"
15,Cc1cc(=O)oc2cc(OC(C)C)ccc12,"inconclusive: 13 µM [falling, partial curve, poor fit]"
16,COc1ccccc1NC(=O)c1sc(-c2ccc(Cl)cc2)cc1N,inactive
17,COc1ccc(CCNC(=O)Cn2c(=O)n(CC3CCCO3)c(=O)c3ccccc32)cc1OC (configuration not stated),"inconclusive: 0.291 µM [falling, single point]"
18,CC1=C(C(=O)OC(C)C)C(c2cccnc2)C2=C(CCCC2=O)N1 (configuration not stated),inactive
19,CC(C)(C)OC(=O)NCCCCCNC(=O)c1[nH]cnc1C(=O)Nc1cccc(Cl)c1,active: 20.6 µM
20,O=C(CCN1C(=O)C2CCCCC2C1=O)Nc1nc2ccc(F)cc2s1 (configuration not stated),"inconclusive: 0.326 µM [activator, full curve, poor fit]"
21,Cc1ccnc(NC(=O)Nc2cccc(F)c2)c1,"inconclusive: 0.517 µM [activator, full curve]"

row,Structure (SMILES),Potency
1,COC(=O)c1ccc(NC(=S)NCCc2ccccc2)cc1,"inconclusive: 16.4 µM [activator, partial curve, poor fit]"
2,O=C(COc1ccc(Cl)cc1Cl)Nc1c(-c2cccs2)nc2ccccn12,"inconclusive: 23.1 µM [falling, single point]"
3,c1ccc(-c2nc(NCc3cccnc3)c3oc4ccccc4c3n2)cc1,"inconclusive: 29.1 µM [falling, single point]"
4,O=C1c2cccc3c(O)ccc(c23)C(=O)N1c1ccc(Cl)cc1,"inconclusive: 18.4 µM [activator, single point]"
5,O=C(Nc1ccccc1)N(CCN1CCOCC1)Cc1ccccc1F,"inconclusive: 25.9 µM [activator, single point]"
6,O=C(COc1ccccc1Cl)Nc1cc(NC(=O)COc2ccccc2Cl)cc(C(=O)O)c1,"inconclusive: 29.1 µM [activator, single point]"
7,Cc1ccc(C)c(OCc2cc(C(=O)N3CCN(C(=O)c4ccco4)CC3)no2)c1,"inconclusive: 2.91 µM [activator, full curve]"
8,CCN1CCN(CCCNC(=O)c2ccc3c(c2)sc2nc(-c4ccc(C)cc4)cn23)CC1,inactive
9,Cc1ccccc1C(=O)c1cccn1CC(=O)NCCN1CCN(c2cccc(C)c2C)CC1,"inconclusive: 29.1 µM [falling, single point]"
10,O=C(CSc1ccc(-c2cccs2)nn1)Nc1cccc(F)c1,active: 20.6 µM
11,CC1=C(C(=O)Nc2ccc(C)cn2)C(c2cnn(C)c2)C2=C(CCCC2=O)N1 (configuration not stated),inactive
12,COC(=O)C1CCN(C(=O)/C=C/c2ccccc2)CC1,"inconclusive: 2.59 µM [activator, full curve, poor fit]"
13,COc1ccc(-c2cc(C)no2)cc1S(=O)(=O)N1CC(C)Oc2ccccc21 (configuration not stated),"inconclusive: 29.1 µM [falling, single point]"
14,Cc1nc(NC2CCCCC2)c2nnn(Cc3ccccc3Cl)c2n1,"inconclusive: 25.9 µM [falling, partial curve, poor fit]"
15,Cc1cc2c(s1)c1cnn(Cc3ccc(C(F)(F)F)cc3)c(=O)c1n2C,inactive
16,CCOP(=O)(OCC)c1nc(-c2ccc(Cl)cc2Cl)oc1N1CCOCC1,"inconclusive: 29.1 µM [falling, single point]"
17,N/C(CCS(=O)(=O)c1ccc(Cl)cc1)=N\OC(=O)c1ccccc1C(F)(F)F,"inconclusive: 18.4 µM [falling, single point]"
18,CCCCN(C(=O)Cc1ccc(S(=O)(=O)N2CCOCC2)s1)c1ccccc1,"inconclusive: 29.1 µM [falling, single point]"
19,CN(C(=O)c1oc(=O)c2ccccc2c1-c1ccccc1)c1cccc(Cl)c1,"inconclusive: 23.1 µM [falling, single point]"
20,Cc1ccc(/C(C#N)=C\c2ccc(N3CCOCC3)o2)cc1,"inconclusive: 2.31 µM [activator, full curve]"
21,C#CCOCCOCCOCCNc1nc(N2CCN(C(=O)CCCCCCCCCCNC(=O)Cn3cc(C[C@@H](C)O)nn3)CC2)nc(N2CCN(C(=O)CCCCCCCCCCNC(=O)[C@H](CCCN=C(N)N)n3cc(C[C@@H](C)CC)nn3)CC2)n1,inactive

# Ordered by molecular weight (smallest number first): some entries from above.
row,Structure (SMILES),Potency
14,Cc1nc(NC2CCCCC2)c2nnn(Cc3ccccc3Cl)c2n1,"inconclusive: 25.9 µM [falling, partial curve, poor fit]"
13,COc1ccc(-c2cc(C)no2)cc1S(=O)(=O)N1CC(C)Oc2ccccc21 (configuration not stated),"inconclusive: 29.1 µM [falling, single point]"
21,C#CCOCCOCCOCCNc1nc(N2CCN(C(=O)CCCCCCCCCCNC(=O)Cn3cc(C[C@@H](C)O)nn3)CC2)nc(N2CCN(C(=O)CCCCCCCCCCNC(=O)[C@H](CCCN=C(N)N)n3cc(C[C@@H](C)CC)nn3)CC2)n1,inactive
